# Laboratory results published in the supplement of paper PMC3334620.
# The full ranking holds about 33,000 sequences; the median of “E-score (-0.5 to 0.5)” is about -0.015, and the highest 2% start at about 0.3. The list shows a part of the results.
# Molecular target: T1, Abf1 (UniProt P14164)
# T1 sequence: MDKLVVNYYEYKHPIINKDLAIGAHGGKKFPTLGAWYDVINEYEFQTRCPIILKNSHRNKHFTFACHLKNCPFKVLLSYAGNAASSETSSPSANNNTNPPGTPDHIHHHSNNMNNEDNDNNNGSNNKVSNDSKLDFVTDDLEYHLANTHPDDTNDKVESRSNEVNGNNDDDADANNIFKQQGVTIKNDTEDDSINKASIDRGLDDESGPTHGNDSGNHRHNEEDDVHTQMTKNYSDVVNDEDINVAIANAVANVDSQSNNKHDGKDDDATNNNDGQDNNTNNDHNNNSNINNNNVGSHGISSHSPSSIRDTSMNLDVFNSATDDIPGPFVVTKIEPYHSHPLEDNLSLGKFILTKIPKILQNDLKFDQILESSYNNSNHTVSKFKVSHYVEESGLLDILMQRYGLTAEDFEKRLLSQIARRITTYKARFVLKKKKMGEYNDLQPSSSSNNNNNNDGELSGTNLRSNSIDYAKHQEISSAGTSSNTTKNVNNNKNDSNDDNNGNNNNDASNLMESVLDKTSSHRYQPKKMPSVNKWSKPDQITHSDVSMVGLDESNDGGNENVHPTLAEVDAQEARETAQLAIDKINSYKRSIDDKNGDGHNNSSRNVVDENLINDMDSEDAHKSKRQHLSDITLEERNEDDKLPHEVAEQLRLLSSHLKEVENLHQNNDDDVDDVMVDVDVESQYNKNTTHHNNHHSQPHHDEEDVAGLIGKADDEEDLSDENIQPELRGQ
# Test: PBM E-score (8-mer binding enrichment) (E-score (-0.5 to 0.5)); higher = stronger / more preferred TF binding
# Conditions: protein concentration: 200 nM; construct: GST-full length
# Method in brief: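 Using PURExpress in vitro transcription/translation, GST-tagged yeast transcription factors were made in full-length or DNA-binding-domain form. These were applied at about 100-200 nM to double-stranded universal all-10-mer Agilent arrays, and bound protein was detected with fluorescent anti-GST. Scans were normalised with masliner before the Universal PBM Analysis Suite assigned E-scores to ungapped eight-base words pooled with their reverse complements.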
row,Sequence,PBM E-score
1,AACATATA,-0.0343
2,CTAAGTTC,-0.0944
3,AATGTCTA,0.054
4,TTGCAAAA,0.0573
5,GGAGATCC,-0.0797
6,AATGTTAA,-0.124
7,AGACCGCA,-0.104
8,ACTGCGAT,-0.0827
9,CAAGCAAG,-0.0699
10,CACCGACC,0.00484
11,GGCCTCGA,-0.172
12,CCTGGCAA,-0.325
13,AGCTCCAA,0.0671
14,TCAAGGGA,-0.21
15,AGGCGCGA,-0.0631
16,ATCAACCC,0.197
17,GCTTCCCC,-0.304
18,GTCACTAA,0.393
19,ATTACCGC,0.0374
20,TAGTCTCA,0.0351
21,AAGGGTGC,0.0759
22,ACCCCACA,-0.115
23,CATTTCCG,0.124
24,AACCTACT,-0.257
25,CTCGGAGC,-0.096

row,Sequence,PBM E-score
1,ACCCAGAG,-0.0714
2,CTACGACA,0.263
3,CCCGCCAG,-0.105
4,CAAAAAGA,0.0578
5,CGTTAGGC,-0.00562
6,TAACCCTA,-0.156
7,GCGTAGCA,0.0569
8,ACCGCCGT,0.129
9,AACTCATT,-0.0215
10,CATGCATG,-0.0319
11,AGTGGCCA,-0.172
12,TAGTTTAA,0.0583
13,CGAGACTC,0.0667
14,GAGGTCGC,0.0116
15,GACCGGGC,-0.123
16,AGTACCGG,-0.202
17,AGAATACC,0.177
18,CTAAGTAG,0.147
19,GAGACTGA,-0.0623
20,GAATCGAC,-0.0108
21,CTAACCTA,0.0259
22,CGCTTACA,-0.088
23,GCCCATAA,-0.0532
24,AATTACCA,-0.0141
25,TGTAGCAA,0.115

row,Sequence,PBM E-score
1,GCTCACCA,-0.17
2,GGGCAGGA,-0.0977
3,AAGCTTCC,-0.0959
4,ATTATGTC,0.303
5,CTGTAGCC,-0.271
6,ATCGGCGA,-0.0365
7,AACGATTA,0.172
8,ATACGTAT,0.224
9,ATAGATTC,0.0566
10,ACCCTGCA,0.0315
11,CAACATGG,-0.159
12,ATGGCACG,-0.159
13,GCTCCCCA,-0.247
14,CTTGGGCA,-0.0573
15,AAAAGTGT,-0.12
16,GGGACGTA,0.159
17,CGAATGAG,-0.0243
18,ATTTTACG,0.322
19,ATAGATCC,0.0856
20,AGACGAGA,0.0552
21,CCTCTAAC,-0.0207
22,GGCTAAAA,-0.0238
23,ACTGACAT,0.0708
24,ACGATCCA,0.224
25,TAATAACA,0.104

row,Sequence,PBM E-score
1,GCCATGTA,0.0666
2,AACTTTAT,0.00309
3,AGACAAAG,0.159
4,CAGTAATC,-0.00799
5,CTTAGTCA,0.163
6,AAGCTACG,0.0386
7,GTATTGGA,-0.0246
8,GATTGAGA,0.21
9,AAGGTTGG,-0.0914
10,CCACTCCG,-0.00036
11,GATAGTCC,0.0357
12,GCATCGCA,-0.404
13,AATTAGAT,0.0466
14,GCCGAAAC,-0.0478
15,AACGATAC,0.32
16,CCACGTAA,0.0425
17,GCAATGCC,-0.0197
18,GTCCCCCA,-0.212
19,CCTAAGAA,0.1
20,ATATTCAA,0.185
21,GGACAAGA,-0.0306
22,ACCGGATC,-0.107
23,AGGCGGTC,-0.166
24,CCTCGCGA,-0.0731
25,ACAAGTGG,-0.0893

# Given as tab-separated lines: part of the list above.
row	Sequence	PBM E-score
8	GATTGAGA	0.21
9	AAGGTTGG	-0.0914
10	CCACTCCG	-0.00036
11	GATAGTCC	0.0357
12	GCATCGCA	-0.404
13	AATTAGAT	0.0466
14	GCCGAAAC	-0.0478

# The results go on.

row,Sequence,PBM E-score
1,CGATGAAC,-0.0063
2,ACATGCAA,-0.0851
3,ATCCGTAC,0.261
4,GACAATCA,0.156
5,CTTAAACC,-0.179
6,GGACCACC,-0.184
7,GGCCCACA,0.0107
8,CGAGTAAG,-0.0754
9,CCTGTTTA,-0.0243
10,CACGTGGC,-0.00572
11,GCGATGAA,0.132
12,AGCTAGTA,0.0346
13,CTTCAAAC,0.128
14,ATGGTAGA,-0.0168
15,CTGAAACA,0.00579
16,AACACGGT,0.163
17,GAGGAGGC,-0.237
18,AGCTAGCT,-0.256
19,AGTATTTA,0.152
20,GGAACATA,-0.0483
21,CTAACGGA,0.0911
22,CGATGTAG,-0.123
23,CTTTCTTC,-0.0154
24,AACAAATT,0.201
25,AGGATACG,0.0264

row,Sequence,PBM E-score
1,AGAAATAC,0.158
2,AGCATGGG,-0.148
3,GAATGAGA,0.0436
4,AAGCAAGC,-0.164
5,AGTGAGCG,0.24
6,GTAAATAC,-0.0474
7,GGAGTGCA,-0.249
8,TTGCGAAA,-0.00754
9,AAGTTTCC,0.0534
10,AATGTGCA,0.0308
11,GAAAAGTA,0.0413
12,GTAGTCAC,0.0419
13,CTAGAGGA,-0.224
14,AGAGCTAG,-0.0458
15,AGTGTAGC,-0.1
16,GCCTGCAA,-0.152
17,AAGGGGTG,-0.0995
18,ACTTCGAT,0.106
19,CGCTACTC,-0.00995
20,AAAGAATC,-0.245
21,GATCTGCC,0.00672
22,ATACGATC,0.307
23,ACAGCAAT,0.0812
24,GAGCAGCA,-0.11
25,CCGTTCCC,0.159

row,Sequence,PBM E-score
1,ATTTTTGA,0.0422
2,AAGTGGTA,-0.00849
3,ACCGAGGG,-0.371
4,CCTCACCA,-0.1
5,AAGAAATG,0.0999
6,AGGGCTCG,-0.202
7,CGGGTAAA,0.036
8,AGCGCGGC,-0.149
9,CCCGGGTC,-0.279
10,ATTTGGTA,0.153
11,CGATTAAA,0.0727
12,GATCTGAC,0.105
13,CTACTCTA,-0.0263
14,CTATTGAG,-0.0162
15,GATTAATC,0.0366
16,AGCGTTCC,0.0725
17,CATCCTCG,-0.127
18,ATATGCAA,0.0892
19,ATATTATG,0.249
20,GTCGCTAA,0.191
21,ACTTAATG,0.192
22,AACTATTA,0.035
